Data: PubChem BioAssay AID720551 (National Center for Advancing Translational Sciences (NCATS), 2013)
Among all 340,000 compounds or so, about 1,300 (0.38%) were called active. The inconclusive results got no clear call from the source; some entries with a clear call stand among them for comparison.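 The calls were made as follows: active = maximum activity change below -70%; inconclusive = maximum activity change between -70% and -50%; inactive = maximum activity change above -50%.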 More than one record can exist for a structure, and the calls need not agree.

Sequences of proteins named here, by UniProt entry; tags and fusion partners are left off. A change or cut given only in a name is not applied to a line headed by its entry.
UniProt Q12809: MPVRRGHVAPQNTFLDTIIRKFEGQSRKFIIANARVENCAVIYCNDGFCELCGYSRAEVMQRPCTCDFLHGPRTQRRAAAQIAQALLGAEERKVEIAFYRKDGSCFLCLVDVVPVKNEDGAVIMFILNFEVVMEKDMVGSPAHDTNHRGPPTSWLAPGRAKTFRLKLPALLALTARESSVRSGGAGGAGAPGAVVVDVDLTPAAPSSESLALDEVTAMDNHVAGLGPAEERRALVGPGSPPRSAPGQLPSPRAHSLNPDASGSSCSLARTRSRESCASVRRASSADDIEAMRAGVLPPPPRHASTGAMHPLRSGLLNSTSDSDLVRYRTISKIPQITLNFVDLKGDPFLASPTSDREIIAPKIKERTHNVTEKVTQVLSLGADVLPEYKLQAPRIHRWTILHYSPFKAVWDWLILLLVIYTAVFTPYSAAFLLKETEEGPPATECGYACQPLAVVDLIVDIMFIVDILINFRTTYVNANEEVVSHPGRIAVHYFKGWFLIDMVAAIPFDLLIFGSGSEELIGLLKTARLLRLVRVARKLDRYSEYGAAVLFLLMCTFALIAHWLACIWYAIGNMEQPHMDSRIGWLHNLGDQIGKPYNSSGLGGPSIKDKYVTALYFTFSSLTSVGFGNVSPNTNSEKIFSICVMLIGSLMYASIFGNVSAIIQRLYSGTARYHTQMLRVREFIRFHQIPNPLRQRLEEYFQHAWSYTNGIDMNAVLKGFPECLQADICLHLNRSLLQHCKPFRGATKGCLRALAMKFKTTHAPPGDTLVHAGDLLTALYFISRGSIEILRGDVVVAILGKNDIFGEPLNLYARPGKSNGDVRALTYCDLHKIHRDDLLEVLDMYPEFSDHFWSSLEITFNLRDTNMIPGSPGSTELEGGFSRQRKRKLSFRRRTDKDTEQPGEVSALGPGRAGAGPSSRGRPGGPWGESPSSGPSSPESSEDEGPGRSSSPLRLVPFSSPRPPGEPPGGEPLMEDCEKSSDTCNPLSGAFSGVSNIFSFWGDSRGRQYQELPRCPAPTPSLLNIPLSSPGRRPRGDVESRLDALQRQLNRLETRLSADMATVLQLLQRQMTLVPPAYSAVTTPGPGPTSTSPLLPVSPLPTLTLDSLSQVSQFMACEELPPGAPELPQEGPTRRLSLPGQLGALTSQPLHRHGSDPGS

target: Voltage-gated inwardly rectifying potassium channel KCNH2 (Homo sapiens) (UniProt Q12809); test: qHTS for Inhibitors of KCHN2 3.1: Wildtype qHTS; conditions: U2OS, BacMam KCNH2, thallium flux FluxOr; at 1.84 µM, stronger effect = lower value
In short: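 U2OS cells were transduced with wild-type KCNH2 virus (2.03 x 10^8 / mL) for 4 h at room temperature, then cultured overnight at 37 C. Thallium flux was read with FluxOr dye. Rate constants were normalized to DMSO controls.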
% is scaled to controls: 0 for no effect and ±100 for the full control effect.

SMILES | activity change
COC(=O)c1cnc(N2CCOCC2)nc1C(F)(F)F | inconclusive: -52.9%
CCCCCCCCCn1c2c(c(=N)c3c1CCC3)CCCC2 | inconclusive: -53.5%
CCN(CC)CCCN(Cc1cc2cc(OC)ccc2[nH]c1=O)C(=O)Nc1ccc(F)cc1 | inconclusive: -54.6%
CCC1CCc2sc(C(=O)NNC(=O)c3ccncc3)cc2C1 (stereo not given) | inactive: -1.96%
Nc1cc(N)nc(SCC(=O)N2CCN(S(=O)(=O)c3ccccc3)CC2)n1 | active: -89.6%
COc1ccc(COCC(O)CN2CCc3ccccc3C2)cc1OC (stereo not given) | inactive: 6.72%
OC1(c2ccc(Cl)cc2)CCN(Cc2cn[nH]c2-c2ccccc2)CC1 | inconclusive: -63%
CCOC(=O)c1ccccc1NC(=O)COC(=O)C1CCCC1 | active: -104%
O=C(Oc1cccc2cccnc12)c1cccs1 | inactive: -6.2%
COc1ccccc1C(=O)COC(=O)c1nc2nc(C)cc(C)n2n1 | inconclusive: -53.6%
COc1cc2c(cc1OC)C(c1ccc(Br)cc1)CC(=O)N2 (stereo not given) | active: -126%
Cc1ccc(-c2nc(SCC(=O)NCC3CCCO3)c(-c3ccc(C)cc3)[nH]2)cc1 (stereo not given) | inactive: -1.94%
O=C(Nc1ccc([N+](=O)[O-])cn1)c1cc(-c2cccc(Cl)c2)nc2ccccc12 | inconclusive: -51.2%
COc1ccc2cc(CCNC(=O)c3cc4ccccc4o3)c(=O)[nH]c2c1 | active: -80.1%
CCN(CC)c1ccc(/C=C/C(=O)C2C(=O)C=C(C)OC2=O)cc1 (stereo not given) | inconclusive: -59.4%
CSc1ncc(C(=O)Nc2ccc(C)cc2C)c(C)n1 | active: -213%
Cc1cccc(NC(=O)CN(C)C(C)C(=O)Nc2ccc(S(=O)(=O)N3CCCC3)cc2)c1C (stereo not given) | inactive: 5.32%
CCOC(=O)N1CCc2c(sc(NC(=O)CN3CCN(C)CC3)c2C(=O)Nc2ccccc2)C1 | inconclusive: -56.6%
CC(C(c1cccs1)c1c(N)n(C)c(=O)n(C)c1=O)[N+](=O)[O-] (stereo not given) | inconclusive: -53.7%
COc1ccc(/C=C/c2cc(C(F)(F)F)[nH]c(=O)n2)cc1OC | inactive: 10.3%
CC[C@@H](C)[C@@H]1CN([C@@H](CN2CCC[C@H]2CN2C(N)=NC[C@H]2C(C)C)C(C)C)C(=N)N1CCCC1CCCC1 | inconclusive: -68.2%
Cn1c(=O)oc2ccc(C(=O)CSc3nnnn3-c3ccccc3)cc21 | inconclusive: -50.8%
COc1ccc(N2CCN(CCC(O)c3ccc4ccccc4c3)CC2)cc1 (stereo not given) | inconclusive: -58.5%
COCCn1c(=S)[nH]c2sc3c(c2c1=O)CCC(C)C3 (stereo not given) | inactive: -10.5%
COc1ccc(CCNC(=O)c2cc3cc(F)ccc3nc2C)cc1OC | inactive: -20.8%
O=C(Nc1cccc2ccccc12)/C(=C\c1cccc([N+](=O)[O-])c1)NC(=O)c1cccs1 | active: -103%
Cc1ccc(S(=O)(=O)NCCNC(=O)C2CCCNC2=O)cc1 (stereo not given) | inconclusive: -55.3%
O=C(Nc1ccc(Cl)c(Cl)c1)Nc1cc(S(=O)(=O)N2CCOCC2)ccc1N1CCCC1 | inconclusive: -60.5%

SMILES | activity change
CC(=O)N1CCN(c2ccc(NC(=O)c3ccco3)cc2)CC1 | inactive: 0.16%
O=C(CN1CCN(C/C=C/c2ccccc2)CC1)NCc1ccc(Cl)cc1 | inconclusive: -57%
C=CCNC(=S)NC(=O)c1ccc(C)c(Br)c1 | inactive: -12.4%
CN(C)c1ccc(NC2=C(Cl)C(=O)c3ccccc3C2=O)cc1 | inconclusive: -65.4%
Cc1ccc(S(=O)(=O)c2cn(Cc3ccc(F)cc3)c3cc4c(cc3c2=O)OCO4)cc1 | inconclusive: -63.2%
COc1cc(NC(=O)c2cc([N+](=O)[O-])ccc2NC(=O)CN2CCN(c3ccccn3)CC2)cc(OC)c1 | inconclusive: -58%
c1ccc(Nc2nc(N3CCNCC3)nc(N3CCOCC3)n2)cc1 | inconclusive: -65.9%
COc1ccc(C)cc1NC(=O)CN1CCN(C/C=C/c2ccccc2)CC1 | active: -98%
CC(=O)Nc1sc(N/N=C/c2ccccc2)nc1-c1ccc(C)cc1 | inactive: 1.24%
O=C(CCCN1CCC(C(=O)c2ccc(F)cc2)CC1)c1ccc(F)cc1 | active: -74.1%
CC(C)c1ccc(/C=N/NC(=O)c2nnn(-c3nonc3N)c2CSC2=NCCS2)cc1 | inactive: -1.52%
CC(C)(C)OC(=O)NNC(=O)c1cccs1 | inconclusive: -53.8%
Cc1nnc(N/N=C/c2ccc(O)c([N+](=O)[O-])c2)[nH]c1=O | inconclusive: -67.4%
O=C(Cc1ccc([N+](=O)[O-])cc1)N1CCN(c2ccc([N+](=O)[O-])cc2)CC1 | inconclusive: -58.5%
Cc1cccc(C2c3[nH]c4ccccc4c3CCN2Cc2cccn2-c2ncccn2)c1 (stereo not given) | inconclusive: -53.2%
COc1cc2ccccc2cc1C(=O)NC(=S)Nc1cccc(C(=O)O)c1 | inconclusive: -50.7%
O=C(CSc1nc2ccccc2c(=O)n1-c1ccc(F)cc1)Nc1ccc(Cl)c(S(=O)(=O)N2CCOCC2)c1 | inconclusive: -65.5%
Cc1ccc(S(=O)(=O)N2CCOC2CNC(=O)C(=O)NCCCN2CCOCC2)cc1 (stereo not given) | inconclusive: -53.3%
C/C(=N/NC(=O)c1ccccn1)c1ccco1 | inactive: 8.33%
CCCCC(CC)CNC(=O)Cn1c(=O)[nH]c2ccsc2c1=O (stereo not given) | inconclusive: -53.5%
O=C(CCc1c[nH]c2ccccc12)OCC(=O)N1CCN(S(=O)(=O)c2ccccc2)CC1 | active: -101%
O=C(NN1CCOCC1)c1cnn2c(C(F)F)cc(-c3ccccc3)nc12 | inconclusive: -51.6%
CCOc1ccc(S(=O)(=O)NCC(=O)NC2CCCCC2)cc1 | inactive: 5.46%
O=C(CN1CCN(CCC(=O)Nc2ccccc2F)CC1)Nc1ccc(F)cc1 | inconclusive: -52.7%
COc1cc2c(cc1OC)CN(C1CC(=O)N(c3c(C)cccc3C)C1=O)CC2 (stereo not given) | inactive: -1.84%
CC1CCC(C(C)C)C(OC(=O)Cn2c(-c3ccc(Br)cc3)[n+](C)c3ccccc32)C1 (stereo not given) | active: -104%
Cc1nc(NC(=S)NC(=O)c2ccco2)sc1C(=O)N(C)C | active: -123%

Of the compounds above, 8 contain a thiophene ring, fused or not.
SMILES | activity change
CCC1CCc2sc(C(=O)NNC(=O)c3ccncc3)cc2C1 (stereo not given) | inactive: -1.96%
O=C(Oc1cccc2cccnc12)c1cccs1 | inactive: -6.2%
CCOC(=O)N1CCc2c(sc(NC(=O)CN3CCN(C)CC3)c2C(=O)Nc2ccccc2)C1 | inconclusive: -56.6%
CC(C(c1cccs1)c1c(N)n(C)c(=O)n(C)c1=O)[N+](=O)[O-] (stereo not given) | inconclusive: -53.7%
COCCn1c(=S)[nH]c2sc3c(c2c1=O)CCC(C)C3 (stereo not given) | inactive: -10.5%
O=C(Nc1cccc2ccccc12)/C(=C\c1cccc([N+](=O)[O-])c1)NC(=O)c1cccs1 | active: -103%
CC(C)(C)OC(=O)NNC(=O)c1cccs1 | inconclusive: -53.8%
CCCCC(CC)CNC(=O)Cn1c(=O)[nH]c2ccsc2c1=O (stereo not given) | inconclusive: -53.5%

A draw from above in order of SMILES length, ascending.
SMILES | activity change
C=CCNC(=S)NC(=O)c1ccc(C)c(Br)c1 | inactive: -12.4%
Cc1nc(NC(=S)NC(=O)c2ccco2)sc1C(=O)N(C)C | active: -123%
O=C(CN1CCN(CCC(=O)Nc2ccccc2F)CC1)Nc1ccc(F)cc1 | inconclusive: -52.7%
